Assay results taken from patent publication US7252957B2, “Identification of etiology of autism” (Immunosciences Lab., Inc., priority 2004, dated 2007).

Assay: ELISA for serum IgG antibodies against antigens, peptides, enzymes, receptors in patients with autism and controls
Parameters: species or system human
Settings: cut-off of 2 standard deviations above the mean of controls; for Percent Elevation of IgG Antibody Levels, Patients / Percent Elevation of IgG Antibody Levels, Controls: Table 5; for Percent Elevation of IgG Antibody Levels, Patients / Approximate Percent Elevation of IgG Antibody Levels, Patients: children with autism; for Approximate Percent Elevation of IgG Antibody Levels, Patients / Approximate Percent Elevation of IgG Antibody Levels, Controls: Table 6, neural antigens

| Molecule | Percent Elevation of IgG Antibody Levels, Patients [%] | Percent Elevation of IgG Antibody Levels, Controls [%] | Approximate Percent Elevation of IgG Antibody Levels, Patients [%] | Approximate Percent Elevation of IgG Antibody Levels, Controls [%] |
| --- | --- | --- | --- | --- |
| NCCc1c[nH]c2ccc(O)cc12 [Serotonin] | 30 | 6 |  |  |
| Tropomyosin | 36 | 8 |  |  |
| B-Endorphin | 36 | 5 |  |  |
| Calreticullin (EQFLDGDGWTSRWIESGLQTSQ; synthetically prepared peptide sequence) | 30 | 1 |  |  |
| Vasoactive Intestinal peptide | 48 | 8 |  |  |
| Chymotrypsin | 48 | 8 |  |  |
| DPPI | 56 | 14 |  |  |
| Trypsin | 44 | 6 |  |  |
| streptokinase [SK] | 18 | 2 |  |  |
| Amyloid β | 23 | 1 |  |  |
| Pepsin | 38 | 4 |  |  |
| Secretin | 52 | 12 |  |  |
| CD69 (MECEKNLYWICNKPYK) | 36 | 6 |  |  |
| Casein | 42 | 10 |  |  |
| CC[C@H](C)[C@H](NC(=O)[C@H](CC(=O)O)NC(=O)[C@H](CC(C)C)NC(=O)[C@H](Cc1c[nH]cn1)NC(=O)[C@@H]1CSSC[C@H](N)C(=O)N[C@@H](CO)C(=O)N[C@H]2CSSC[C@H](NC(=O)[C@H](CCC(=O)O)NC(=O)[C@H](CCCCN)NC(=O)[C@H](CC(=O)O)NC(=O)[C@H](CCSC)NC(=O)[C@H](CC(C)C)NC(=O)[C@H](CO)NC(=O)[C@H](CO)NC2=O)C(=O)N[C@@H](C(C)C)C(=O)N[C@@H](Cc2ccc(O)cc2)C(=O)N[C@@H](Cc2ccccc2)C(=O)N1)C(=O)N[C@H](C(=O)N[C@@H](Cc1c[nH]c2ccccc12)C(=O)O)[C@@H](C)CC [Endothelin] | 35 | 2 |  |  |
| CC[C@H](C)[C@H](NC(=O)[C@@H]1CCCN1C(=O)[C@@H](NC(=O)[C@@H](N)Cc1ccccc1)C(C)C)C(=O)N[C@@H](Cc1ccccc1)C(=O)N[C@H](C(=O)N[C@@H](Cc1ccc(O)cc1)C(=O)NCC(=O)N[C@@H](CCC(=O)O)C(=O)N[C@@H](CC(C)C)C(=O)N[C@@H](CCC(N)=O)C(=O)N[C@@H](CCCNC(=N)N)C(=O)N[C@@H](CCSC)C(=O)N[C@@H](CCC(N)=O)C(=O)N[C@@H](CCC(=O)O)C(=O)N[C@@H](CCCCN)C(=O)N[C@@H](CCC(=O)O)C(=O)N[C@@H](CCCNC(=N)N)C(=O)N[C@@H](CC(N)=O)C(=O)N[C@@H](CCCCN)C(=O)NCC(=O)N[C@@H](CCC(N)=O)C(=O)O)[C@@H](C)O [Motilin] | 52 | 14 |  |  |
| CC[C@H](C)[C@@H]1NC(=O)[C@H](Cc2ccc(O)cc2)NC(=O)[C@@H](N)CSSC[C@@H](C(=O)N2CCC[C@H]2C(=O)N[C@@H](CC(C)C)C(=O)NCC(N)=O)NC(=O)[C@H](CC(N)=O)NC(=O)[C@H](CCC(N)=O)NC1=O [Oxytocin] | 32 | 6 |  |  |
| CD13 (protein, UniProt P15144 2-967, looked up) Aminopeptidase N: AKGFYISKSLGILGILLGVAAVCTIIALSVVYSQEKNKNANSSPVASTTPSASATTNPASATTLDQSKAWNRYRLPNTLKPDSYRVTLRPYLTPNDRGLYVFKGSSTVRFTCKEATDVIIIHSKKLNYTLSQGHRVVLRGVGGSQPPDIDKTELVEPTEYLVVHLKGSLVKDSQYEMDSEFEGELADDLAGFYRSEYMEGNVRKVVATTQMQAADARKSFPCFDEPAMKAEFNITLIHPKDLTALSNMLPKGPSTPLPEDPNWNVTEFHTTPKMSTYLLAFIVSEFDYVEKQASNGVLIRIWARPSAIAAGHGDYALNVTGPILNFFAGHYDTPYPLPKSDQIGLPDFNAGAMENWGLVTYRENSLLFDPLSSSSSNKERVVTVIAHELAHQWFGNLVTIEWWNDLWLNEGFASYVEYLGADYAEPTWNLKDLMVLNDVYRVMAVDALASSHPLSTPASEINTPAQISELFDAISYSKGASVLRMLSSFLSEDVFKQGLASYLHTFAYQNTIYLNLWDHLQEAVNNRSIQLPTTVRDIMNRWTLQMGFPVITVDTSTGTLSQEHFLLDPDSNVTRPSEFNYVWIVPITSIRDGRQQQDYWLIDVRAQNDLFSTSGNEWVLLNLNVTGYYRVNYDEENWRKIQTQLQRDHSAIPVINRAQIINDAFNLASAHKVPVTLALNNTLFLIEERQYMPWEAALSSLSYFKLMFDRSEVYGPMKNYLKKQVTPLFIHFRNNTNNWREIPENLMDQYSEVNAISTACSNGVPECEEMVSGLFKQWMENPNNNPIHPNLRSTVYCNAIAQGGEEEWDFAWEQFRNATLVNEADKLRAALACSKELWILNRYLSYTLNPDLIRKQDATSTIISITNNVIGQGLVWDFVQSNWKKLFNDYGGGSFSFSNLIQAVTRRFSTEYELQQLEQFKKDNEETGFGSGTRALEQALEKTKANIKWVKENKEVVLQWFTENSK | 40 | 8 |  |  |
| MBP (protein, UniProt P02686 1-304, looked up) Myelin basic protein: MGNHAGKRELNAEKASTNSETNRGESEKKRNLGELSRTTSEDNEVFGEADANQNNGTSSQDTAVTDSKRTADPKNAWQDAHPADPGSRPHLIRLFSRDAPGREDNTFKDRPSESDELQTIQEDSAATSESLDVMASQKRPSQRHGSKYLATASTMDHARHGFLPRHRDTGILDSIGRFFGGDRGAPKRGSGKDSHHPARTAHYGSLPQKSHGRTQDENPVVHFFKNIVTPRTPPPSQGKGRGLSLSRFSWGAEGQRPGFGYGGRASDYKSAHKGFKGVDAQGTLSKIFKLGGRDSRSGSPMARR | 58 | 15 | 57 | 14 |
| PLP (protein, UniProt P60201 2-277, looked up) Myelin proteolipid protein: GLLECCARCLVGAPFASLVATGLCFFGVALFCGCGHEALTGTEKLIETYFSKNYQDYEYLINVIHAFQYVIYGTASFFFLYGALLLAEGFYTTGAVRQIFGDYKTTICGKGLSATVTGGQKGRGSRGQHQAHSLERVCHCLGKWLGHPDKFVGITYALTVVWLLVFACSAVPVYIYFNTWTTCQSIAFPSKTSASIGSLCADARMYGVLPWNAFPGKVCGSNLLSICKTAEFQMTFHLFIAAFVGAAATLVSLLTFMIAATYNFAVLKLMGRGTKF | 46 | 7 |  |  |
| Transaldolase (protein, UniProt P37837 1-337, looked up) Transaldolase: MSSSPVKRQRMESALDQLKQFTTVVADTGDFHAIDEYKPQDATTNPSLILAAAQMPAYQELVEEAIAYGRKLGGSQEDQIKNAIDKLFVLFGAEILKKIPGRVSTEVDARLSFDKDAMVARARRLIELYKEAGISKDRILIKLSSTWEGIQAGKELEEQHGIHCNMTLLFSFAQAVACAEAGVTLISPFVGRILDWHVANTDKKSYEPLEDPGVKSVTKIYNYYKKFSYKTIVMGASFRNTGEIKALAGCDFLTISPKLLGELLQDNAKLVPVLSAKAAQASDLEKIHLDEKSFRWLHNEDQMAVEKLSDGIRKFAADAVKLERMLTERMFNAENGK | 29 | 4 | 33 | 4 |
| MOG (protein, UniProt Q16653 30-247, looked up) Myelin-oligodendrocyte …: GQFRVIGPRHPIRALVGDEVELPCRISPGKNATGMEVGWYRPPFSRVVHLYRNGKDQDGDQAPEYRGRTELLKDAIGEGKVTLRIRNVRFSDEGGFTCFFRDHSYQEEAAMELKVEDPFYWVSPGVLVLLAVLPVLLLQITVGLIFLCLQYRLRGKLRAEIENLHRTFDPHFLRVPCWKITLFVIVPVLGPLVALIICYNWLHRRLAGQFLEELRNPF | 48 | 11 | 43 | 11 |
| MAG (protein, UniProt P20916 20-626, looked up) Myelin-associated glycoprotein: GHWGAWMPSSISAFEGTCVSIPCRFDFPDELRPAVVHGVWYFNSPYPKNYPPVVFKSRTQVVHESFQGRSRLLGDLGLRNCTLLLSNVSPELGGKYYFRGDLGGYNQYTFSEHSVLDIVNTPNIVVPPEVVAGTEVEVSCMVPDNCPELRPELSWLGHEGLGEPAVLGRLREDEGTWVQVSLLHFVPTREANGHRLGCQASFPNTTLQFEGYASMDVKYPPVIVEMNSSVEAIEGSHVSLLCGADSNPPPLLTWMRDGTVLREAVAESLLLELEEVTPAEDGVYACLAENAYGQDNRTVGLSVMYAPWKPTVNGTMVAVEGETVSILCSTQSNPDPILTIFKEKQILSTVIYESELQLELPAVSPEDDGEYWCVAENQYGQRATAFNLSVEFAPVLLLESHCAAARDTVQCLCVVKSNPEPSVAFELPSRNVTVNESEREFVYSERSGLVLTSILTLRGQAQAPPRVICTARNLYGAKSLELPFQGAHRLMWAKIGPVGAVVAFAILIAIVCYITQTRRKKNVTESPSFSAGDNPPVLFSSDFRISGAPEKYESERRLGSERRLLGLRGEPPELDLSYSHSDLGKRPTKDSYTLTEELAEYAEIRVK | 49 | 8 | 49 | 9 |
| Fibrillarin (protein, UniProt P22087 1-321, looked up) rRNA 2'-O-methyltransferase …: MKPGFSPRGGGFGGRGGFGDRGGRGGRGGFGGGRGRGGGFRGRGRGGGGGGGGGGGGGRGGGGFHSGGNRGRGRGGKRGNQSGKNVMVEPHRHEGVFICRGKEDALVTKNLVPGESVYGEKRVSISEGDDKIEYRAWNPFRSKLAAAILGGVDQIHIKPGAKVLYLGAASGTTVSHVSDIVGPDGLVYAVEFSHRSGRDLINLAKKRTNIIPVIEDARHPHKYRMLIAMVDVIFADVAQPDQTRIVALNAHTFLRNGGHFVISIKANCIDSTASAEAVFASEVKKMQQENMKPQEQLTLEPYERDHAVVVGVYRPPPKVKN | 44 | 2 |  |  |
